Strings that start with PEPTIDE1 are HELM notation: dots part the residues, brackets hold end groups and non-standard residues.
Assay: general procedure: solution-phase peptide synthesis; HATU, DIPEA
[1] = late stage modification step, HCl salt

Substance	step yield [1] [%]	step yield (coupling step)
PEPTIDE1{G.G.G.A.[cN]}$$$$V2.0	52	
Boc-GGG-AcN		66%
Boc-GGG-AepicN		69%
PEPTIDE1{G.G.G.A.[epicN]}$$$$V2.0	98	
PEPTIDE1{[Fmoc].G.G.G.F.[epicQ]}$$$$V2.0		61% yield

From publication PMC12117711 (Chemical Science, 2025)
